Assay results reported in the supplement of paper PMC10849652.
Some of the results follow.

Chains of the proteins cited; added tags and fusions are not shown. Lines headed by an entry give the natural chain unless they say otherwise; changes in a name come on top.
UniProt P11166: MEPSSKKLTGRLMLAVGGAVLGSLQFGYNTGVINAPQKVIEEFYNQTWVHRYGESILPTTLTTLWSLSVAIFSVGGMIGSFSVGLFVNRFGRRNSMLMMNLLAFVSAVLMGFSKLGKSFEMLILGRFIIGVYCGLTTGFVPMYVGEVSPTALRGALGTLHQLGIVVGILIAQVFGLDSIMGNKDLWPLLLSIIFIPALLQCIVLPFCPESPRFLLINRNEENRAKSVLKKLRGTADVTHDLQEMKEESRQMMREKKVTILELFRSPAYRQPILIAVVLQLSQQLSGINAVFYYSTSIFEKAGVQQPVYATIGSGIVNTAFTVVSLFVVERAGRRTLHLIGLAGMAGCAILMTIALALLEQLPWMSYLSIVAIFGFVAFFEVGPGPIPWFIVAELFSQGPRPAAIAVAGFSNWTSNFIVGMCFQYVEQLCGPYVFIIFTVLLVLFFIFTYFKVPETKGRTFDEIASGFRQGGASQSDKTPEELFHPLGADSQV
UniProt Q6P1M0: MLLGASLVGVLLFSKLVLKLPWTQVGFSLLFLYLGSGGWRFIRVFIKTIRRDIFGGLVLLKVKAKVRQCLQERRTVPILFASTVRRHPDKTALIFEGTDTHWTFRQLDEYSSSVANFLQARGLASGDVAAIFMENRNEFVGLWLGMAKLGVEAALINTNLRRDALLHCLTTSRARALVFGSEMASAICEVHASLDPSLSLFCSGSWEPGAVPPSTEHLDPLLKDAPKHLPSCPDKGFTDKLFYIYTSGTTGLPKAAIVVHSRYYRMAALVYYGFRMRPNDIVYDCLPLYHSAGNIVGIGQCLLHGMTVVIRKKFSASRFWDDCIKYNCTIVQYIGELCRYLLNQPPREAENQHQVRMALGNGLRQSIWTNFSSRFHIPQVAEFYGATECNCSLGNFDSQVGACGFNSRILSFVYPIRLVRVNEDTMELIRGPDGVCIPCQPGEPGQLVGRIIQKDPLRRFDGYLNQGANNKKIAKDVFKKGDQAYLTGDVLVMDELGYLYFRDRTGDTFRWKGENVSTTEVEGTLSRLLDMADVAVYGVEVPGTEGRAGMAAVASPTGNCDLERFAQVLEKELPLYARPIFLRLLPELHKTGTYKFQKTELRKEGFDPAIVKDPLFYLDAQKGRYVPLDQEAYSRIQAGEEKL
UniProt Q9UBX3: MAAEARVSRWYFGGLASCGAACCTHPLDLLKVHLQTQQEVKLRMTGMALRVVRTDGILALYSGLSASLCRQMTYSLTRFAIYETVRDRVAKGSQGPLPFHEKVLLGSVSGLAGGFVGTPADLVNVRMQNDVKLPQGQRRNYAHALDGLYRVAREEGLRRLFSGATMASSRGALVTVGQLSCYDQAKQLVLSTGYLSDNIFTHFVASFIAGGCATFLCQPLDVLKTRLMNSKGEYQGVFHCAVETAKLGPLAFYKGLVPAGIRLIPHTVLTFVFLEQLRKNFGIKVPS
UniProt Q92581: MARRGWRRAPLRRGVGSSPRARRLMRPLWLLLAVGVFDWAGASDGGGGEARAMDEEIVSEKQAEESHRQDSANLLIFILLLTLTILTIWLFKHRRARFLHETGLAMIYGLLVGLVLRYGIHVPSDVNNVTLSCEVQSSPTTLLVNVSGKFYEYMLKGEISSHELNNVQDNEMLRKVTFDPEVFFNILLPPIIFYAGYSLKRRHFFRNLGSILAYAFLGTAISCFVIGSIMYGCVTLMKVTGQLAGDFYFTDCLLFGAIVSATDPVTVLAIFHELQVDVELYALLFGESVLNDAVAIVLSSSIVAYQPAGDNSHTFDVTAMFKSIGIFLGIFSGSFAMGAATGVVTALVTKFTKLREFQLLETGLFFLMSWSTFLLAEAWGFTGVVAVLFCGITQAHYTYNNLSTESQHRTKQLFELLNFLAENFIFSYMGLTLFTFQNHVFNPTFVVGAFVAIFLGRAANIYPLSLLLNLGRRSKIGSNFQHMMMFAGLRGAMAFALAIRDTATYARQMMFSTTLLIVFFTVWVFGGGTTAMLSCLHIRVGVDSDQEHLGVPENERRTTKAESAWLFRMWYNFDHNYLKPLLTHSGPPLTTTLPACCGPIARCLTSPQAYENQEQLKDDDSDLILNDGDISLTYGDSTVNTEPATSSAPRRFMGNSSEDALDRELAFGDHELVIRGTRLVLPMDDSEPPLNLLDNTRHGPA
UniProt P30825: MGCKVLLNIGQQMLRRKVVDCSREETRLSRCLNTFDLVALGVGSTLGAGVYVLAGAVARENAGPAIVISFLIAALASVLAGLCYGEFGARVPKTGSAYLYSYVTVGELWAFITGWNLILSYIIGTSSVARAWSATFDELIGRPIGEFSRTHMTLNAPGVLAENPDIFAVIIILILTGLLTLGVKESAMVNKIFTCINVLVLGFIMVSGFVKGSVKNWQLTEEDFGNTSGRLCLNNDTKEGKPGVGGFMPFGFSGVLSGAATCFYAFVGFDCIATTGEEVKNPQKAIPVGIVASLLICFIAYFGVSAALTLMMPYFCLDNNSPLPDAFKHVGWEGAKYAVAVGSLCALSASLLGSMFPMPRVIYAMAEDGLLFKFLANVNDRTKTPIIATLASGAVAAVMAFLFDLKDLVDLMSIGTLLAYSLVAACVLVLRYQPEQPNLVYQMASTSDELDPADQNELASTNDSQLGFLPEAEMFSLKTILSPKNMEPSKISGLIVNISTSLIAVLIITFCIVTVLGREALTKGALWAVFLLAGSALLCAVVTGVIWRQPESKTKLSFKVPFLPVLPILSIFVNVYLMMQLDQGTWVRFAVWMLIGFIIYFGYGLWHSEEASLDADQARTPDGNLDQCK
UniProt Q9BQT8: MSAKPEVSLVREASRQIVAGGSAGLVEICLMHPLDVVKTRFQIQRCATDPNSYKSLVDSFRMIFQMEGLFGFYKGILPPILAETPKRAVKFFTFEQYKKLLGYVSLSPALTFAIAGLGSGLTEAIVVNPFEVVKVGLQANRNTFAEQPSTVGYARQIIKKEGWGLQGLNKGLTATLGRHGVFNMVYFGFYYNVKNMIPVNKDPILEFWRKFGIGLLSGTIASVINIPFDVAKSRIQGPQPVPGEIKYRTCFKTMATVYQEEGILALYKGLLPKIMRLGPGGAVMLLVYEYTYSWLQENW
UniProt Q6XR72: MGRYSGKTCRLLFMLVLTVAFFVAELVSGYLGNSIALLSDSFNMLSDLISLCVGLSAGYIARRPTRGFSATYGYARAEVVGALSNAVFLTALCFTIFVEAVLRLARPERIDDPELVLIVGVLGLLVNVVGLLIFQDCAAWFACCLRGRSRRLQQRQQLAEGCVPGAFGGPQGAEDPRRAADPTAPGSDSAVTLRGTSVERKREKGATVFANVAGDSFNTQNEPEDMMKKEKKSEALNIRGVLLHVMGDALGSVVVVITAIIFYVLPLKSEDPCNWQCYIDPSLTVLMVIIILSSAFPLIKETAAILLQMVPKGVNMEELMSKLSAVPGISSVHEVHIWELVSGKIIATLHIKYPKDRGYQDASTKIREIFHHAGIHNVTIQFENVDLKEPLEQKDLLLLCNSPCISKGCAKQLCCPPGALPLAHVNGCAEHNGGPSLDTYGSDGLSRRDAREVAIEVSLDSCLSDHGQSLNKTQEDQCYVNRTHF
UniProt L0R6Q1: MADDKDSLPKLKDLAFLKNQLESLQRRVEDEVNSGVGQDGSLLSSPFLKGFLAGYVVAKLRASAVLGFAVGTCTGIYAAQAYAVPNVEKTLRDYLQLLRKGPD
UniProt Q15043: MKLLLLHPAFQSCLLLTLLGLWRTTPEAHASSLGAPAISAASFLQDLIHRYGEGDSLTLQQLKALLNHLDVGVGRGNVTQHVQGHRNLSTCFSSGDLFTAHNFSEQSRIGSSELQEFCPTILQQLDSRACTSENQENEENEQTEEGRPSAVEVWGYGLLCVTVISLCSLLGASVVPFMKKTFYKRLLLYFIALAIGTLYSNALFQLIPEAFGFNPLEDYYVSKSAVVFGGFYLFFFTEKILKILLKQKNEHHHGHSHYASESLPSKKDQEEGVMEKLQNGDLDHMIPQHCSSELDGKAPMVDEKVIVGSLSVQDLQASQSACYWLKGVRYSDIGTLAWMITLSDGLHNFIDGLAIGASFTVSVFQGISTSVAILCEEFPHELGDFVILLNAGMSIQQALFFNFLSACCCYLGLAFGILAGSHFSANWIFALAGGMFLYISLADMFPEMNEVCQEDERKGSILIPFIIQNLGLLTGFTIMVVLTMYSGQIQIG
UniProt Q8TAD4: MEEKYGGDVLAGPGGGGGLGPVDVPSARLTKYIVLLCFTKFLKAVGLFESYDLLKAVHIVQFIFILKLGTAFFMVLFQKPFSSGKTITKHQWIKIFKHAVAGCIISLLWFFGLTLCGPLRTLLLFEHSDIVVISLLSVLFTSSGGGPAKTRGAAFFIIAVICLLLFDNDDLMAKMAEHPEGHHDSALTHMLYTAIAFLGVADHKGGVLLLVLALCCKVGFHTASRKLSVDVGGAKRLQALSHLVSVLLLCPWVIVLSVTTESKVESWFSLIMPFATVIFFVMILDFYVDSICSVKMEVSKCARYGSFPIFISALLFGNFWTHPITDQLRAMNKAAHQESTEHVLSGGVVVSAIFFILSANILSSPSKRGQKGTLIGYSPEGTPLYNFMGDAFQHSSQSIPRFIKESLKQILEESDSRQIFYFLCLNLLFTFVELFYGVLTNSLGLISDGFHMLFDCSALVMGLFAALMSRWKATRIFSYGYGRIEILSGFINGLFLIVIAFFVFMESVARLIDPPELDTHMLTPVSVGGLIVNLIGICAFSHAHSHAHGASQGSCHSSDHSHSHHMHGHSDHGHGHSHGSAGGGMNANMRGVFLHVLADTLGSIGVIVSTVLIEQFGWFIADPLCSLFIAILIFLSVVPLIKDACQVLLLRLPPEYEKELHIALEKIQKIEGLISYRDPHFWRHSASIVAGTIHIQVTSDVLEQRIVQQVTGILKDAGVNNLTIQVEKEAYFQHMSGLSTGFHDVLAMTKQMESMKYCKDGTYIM
UniProt Q9H936: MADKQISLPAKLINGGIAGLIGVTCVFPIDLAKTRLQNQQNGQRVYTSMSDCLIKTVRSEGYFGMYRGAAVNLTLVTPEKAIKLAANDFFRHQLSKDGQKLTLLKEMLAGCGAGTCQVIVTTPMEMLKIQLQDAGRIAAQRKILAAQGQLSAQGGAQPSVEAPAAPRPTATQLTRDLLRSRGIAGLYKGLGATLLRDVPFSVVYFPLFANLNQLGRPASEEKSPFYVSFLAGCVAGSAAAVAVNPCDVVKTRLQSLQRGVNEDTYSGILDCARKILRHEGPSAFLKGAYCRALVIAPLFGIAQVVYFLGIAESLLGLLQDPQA
UniProt Q8IYB5: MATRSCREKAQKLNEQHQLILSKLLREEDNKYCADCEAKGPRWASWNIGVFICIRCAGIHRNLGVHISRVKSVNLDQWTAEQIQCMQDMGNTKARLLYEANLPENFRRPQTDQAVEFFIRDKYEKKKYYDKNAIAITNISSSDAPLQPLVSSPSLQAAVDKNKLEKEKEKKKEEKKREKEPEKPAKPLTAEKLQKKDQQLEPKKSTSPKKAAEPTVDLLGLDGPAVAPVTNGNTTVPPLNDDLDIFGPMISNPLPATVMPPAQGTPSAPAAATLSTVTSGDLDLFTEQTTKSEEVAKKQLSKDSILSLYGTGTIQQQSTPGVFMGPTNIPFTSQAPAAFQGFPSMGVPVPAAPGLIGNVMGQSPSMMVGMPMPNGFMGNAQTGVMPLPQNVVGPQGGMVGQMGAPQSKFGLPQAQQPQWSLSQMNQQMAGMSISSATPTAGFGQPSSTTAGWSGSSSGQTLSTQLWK
UniProt O43826: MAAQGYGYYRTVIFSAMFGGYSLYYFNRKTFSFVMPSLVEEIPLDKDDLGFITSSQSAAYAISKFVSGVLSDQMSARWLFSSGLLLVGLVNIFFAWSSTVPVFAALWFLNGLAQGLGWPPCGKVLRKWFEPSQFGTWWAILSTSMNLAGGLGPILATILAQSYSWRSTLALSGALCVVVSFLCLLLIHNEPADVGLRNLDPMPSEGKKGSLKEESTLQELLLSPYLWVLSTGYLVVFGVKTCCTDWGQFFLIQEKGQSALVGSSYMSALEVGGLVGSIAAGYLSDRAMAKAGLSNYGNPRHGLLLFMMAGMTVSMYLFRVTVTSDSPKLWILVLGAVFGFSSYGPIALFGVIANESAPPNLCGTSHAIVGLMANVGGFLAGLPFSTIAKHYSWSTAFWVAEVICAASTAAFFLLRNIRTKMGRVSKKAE
UniProt Q6KCM7: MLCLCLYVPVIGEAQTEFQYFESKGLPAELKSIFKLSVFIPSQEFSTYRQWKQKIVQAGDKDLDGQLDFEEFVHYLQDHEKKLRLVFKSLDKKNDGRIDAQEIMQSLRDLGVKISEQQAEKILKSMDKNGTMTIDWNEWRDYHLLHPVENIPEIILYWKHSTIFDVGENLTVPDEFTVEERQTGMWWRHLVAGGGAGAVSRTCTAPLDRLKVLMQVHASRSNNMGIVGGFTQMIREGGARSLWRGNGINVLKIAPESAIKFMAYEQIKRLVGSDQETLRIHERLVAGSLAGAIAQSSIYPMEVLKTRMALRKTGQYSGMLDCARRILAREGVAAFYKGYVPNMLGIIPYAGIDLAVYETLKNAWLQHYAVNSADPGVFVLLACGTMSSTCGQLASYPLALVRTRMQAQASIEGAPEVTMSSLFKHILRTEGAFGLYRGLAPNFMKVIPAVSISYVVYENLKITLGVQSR

Assays:
Experiment in all cases: log2 fold change, soluble protein after heating vs DMSO (PISA); higher = thermal stabilisation; K562 lysate, 10 uM; active = over 0.2 and 3.5 SD of the protein, either way, in both replicates (recomputed)
erlotinib = compound: C#Cc1cccc(Nc2ncnc3cc(OCCOC)c(OCCOC)cc23)c1 [erlotinib]
In short: (§1)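 K562 pellets were dounce-homogenised in PBS pH 7.4 containing 1 mM MgCl2, and the crude extract, at 1 mg/mL protein, was exposed to 10 μM compound for 30 min. Aliquots were heated for 3 min across 48°C-58°C, pooled, brought to 0.5% NP-40 at 4°C and spun at 21,000xg for 90 min, with the supernatant taken as soluble protein. TMTpro 16plex LC-MS/MS with equalised channel sums quantified that protein. Values are log-two fold changes in thermal stability relative to solvent controls, taken from duplicates.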

[1] = compound: C/C(=N\NC(=O)C1=CC(=CC=C1)S(=O)(=O)N2CCOCC2)/C3=C(C=CC(=C3)Cl)O
In short: as §1

[2] = compound: C1=CC(=CC=C1C2=NC3=C(N2)C=C(C=C3)C(=O)N)OC4=CC=C(C=C4)Cl
In short: as §1

[3] = compound: C1=CC2=C(C=CC(=C2)/C=C\3/C(=O)NC(=NCC4=CC=CS4)S3)N=C1
In short: as §1

[4] = compound: C1=CC2=NC=CN=C2C=C1/C=C/3\C(=O)NC(=O)S3
In short: as §1

[5] = compound: C1=CC=C(C=C1)C2=NC(=C(N2)C3=CC=NC=C3)C4=CC(=C(C=C4)Cl)O
In short: as §1

[6] = compound: C1=CC=C2C(=C1)C3=NNC4=CC=CC(=C43)C2=O
In short: as §1

[7] = compound: C1CCN(C1)C(=O)NC2=CC=CC(=C2)NC3=NC=C(C(=N3)NCCC4=CN=CN4)Br
In short: as §1

[8] = compound: C1CN(CCC1(CC2=CC=C(C=C2)Cl)N)C3=NC=NC4=C3C=CN4
In short: as §1

IRAK-1-4 Inhibitor I = compound: C1COCCN1CCN2C3=CC=CC=C3N=C2NC(=O)C4=CC(=CC=C4)[N+](=O)[O-] [IRAK-1-4 Inhibitor I]
In short: as §1

Measured: log2 fold change

SLC2A1 (UniProt P11166)
inactive: erlotinib -0.039 | [1] 0.003 | [2] -0.013 | [3] -0.031 | [4] -0.044 | [5] -0.023 | [6] -0.031 | [7] 0.022 | [8] 0.001 | IRAK-1-4 Inhibitor I -0.017

SLC39A10 (UniProt Q9ULF5)
inactive: erlotinib -0.022 | [1] 0.101 | [2] 0.013 | [3] 0.082 | [4] -0.002 | [5] -0.029 | [6] 0.001 | [7] -0.049 | [8] 0.022 | IRAK-1-4 Inhibitor I -0.05

SLC25A14 isoform 3 (UniProt O95258)
inactive: erlotinib -0.001 | [1] 0.165 | [2] -0.002 | [3] 0.043 | [4] -0.04 | [5] 0.092 | [6] 0.117 | [7] 0.026 | [8] -0.089 | IRAK-1-4 Inhibitor I 0.032

SLC25A37 (UniProt Q9NYZ2)
inactive: erlotinib -0.006 | [1] 0.011 | [2] -0.076 | [3] -0.022 | [4] 0.066 | [5] 0.028 | [6] 0.007 | [7] -0.01 | [8] -0.014 | IRAK-1-4 Inhibitor I 0.162

SLC27A4 (UniProt Q6P1M0)
inactive: erlotinib 0.022 | [1] 0.01 | [2] -0.023 | [3] 0.052 | [4] 0.063 | [5] -0.009 | [6] 0.041 | [7] 0.015 | [8] 0.084 | IRAK-1-4 Inhibitor I -0.003

SLC38A1 (UniProt Q9H2H9)
inactive: erlotinib -0.01 | [1] -0.029 | [2] 0.056 | [3] 0.007 | [4] 0.01 | [5] 0.039 | [6] -0.061 | [7] -0.027 | [8] 0.026 | IRAK-1-4 Inhibitor I 0.053

SLC25A10 isoform 2 (UniProt Q9UBX3)
inactive: erlotinib 0 | [1] 0.03 | [2] 0.014 | [3] 0.01 | [4] 0.022 | [5] -0.016 | [6] 0.059 | [7] -0.013 | [8] -0.006 | IRAK-1-4 Inhibitor I 0.02

SLC6A6 (UniProt P31641)
inactive: erlotinib -0.016 | [1] -0.042 | [2] 0.023 | [3] -0.153 | [4] -0.013 | [5] -0.071 | [6] 0.031 | [7] -0.034 | [8] 0.042 | IRAK-1-4 Inhibitor I 0.03

SLC9A6 isoform 2 (UniProt Q92581)
inactive: erlotinib -0.003 | [1] 0.006 | [2] 0.008 | [3] 0.02 | [4] 0.055 | [5] -0.035 | [6] -0.061 | [7] 0.015 | [8] -0.065 | IRAK-1-4 Inhibitor I -0.051

SLC6A9 isoform 2 (UniProt P48067)
inactive: erlotinib -0.012 | [1] -0.098 | [2] 0.076 | [3] 0.023 | [4] -0.046 | [5] 0.009 | [6] -0.057 | [7] -0.048 | [8] -0.076 | IRAK-1-4 Inhibitor I 0.022

SLC35B4 (UniProt Q969S0)
inactive: erlotinib 0.026 | [1] -0.028 | [2] -0.278 | [3] 0 | [4] 0.018 | [5] -0.058 | [6] -0.042 | [7] 0.02 | [8] 0.07 | IRAK-1-4 Inhibitor I 0.129

SLC7A1 (UniProt P30825)
inactive: erlotinib 0.043 | [1] 0.058 | [2] 0.067 | [3] 0.032 | [4] -0.006 | [5] 0.002 | [6] -0.001 | [7] -0.011 | [8] -0.036 | IRAK-1-4 Inhibitor I -0.016

SLC25A21 (UniProt Q9BQT8)
inactive: erlotinib -0.009 | [1] 0.014 | [2] 0.047 | [3] 0 | [4] -0.026 | [5] -0.015 | [6] 0.028 | [7] -0.003 | [8] -0.002 | IRAK-1-4 Inhibitor I -0.001

SLC30A10 (UniProt Q6XR72)
inactive: erlotinib 0.036 | [1] 0.061 | [2] -0.02 | [3] 0.071 | [4] -0.027 | [5] -0.006 | [6] -0.175 | [7] 0.082 | [8] -0.016 | IRAK-1-4 Inhibitor I 0.04

SLC35A4 (UniProt L0R6Q1)
inactive: erlotinib -0.026 | [1] 0.043 | [2] -0.064 | [3] 0.014 | [4] 0 | [5] -0.007 | [6] -0.058 | [7] -0.023 | [8] 0.05 | IRAK-1-4 Inhibitor I 0.013

2 successive records already listed, quoted:
SLC25A37 (UniProt Q9NYZ2)
inactive: erlotinib -0.006 | [1] 0.011 | [2] -0.076 | [3] -0.022 | [4] 0.066 | [5] 0.028 | [6] 0.007 | [7] -0.01 | [8] -0.014 | IRAK-1-4 Inhibitor I 0.162

SLC27A4 (UniProt Q6P1M0)
inactive: erlotinib 0.022 | [1] 0.01 | [2] -0.023 | [3] 0.052 | [4] 0.063 | [5] -0.009 | [6] 0.041 | [7] 0.015 | [8] 0.084 | IRAK-1-4 Inhibitor I -0.003

Next results follow.

SLC35E1 (UniProt Q96K37)
inactive: erlotinib 0.045 | [1] -0.046 | [2] -0.011 | [3] 0.066 | [4] -0.12 | [5] 0.02 | [6] -0.003 | [7] -0.106 | [8] -0.15 | IRAK-1-4 Inhibitor I -0.019

SLC39A14 (UniProt Q15043)
inactive: erlotinib -0.009 | [1] -0.019 | [2] -0.018 | [3] -0.018 | [4] 0 | [5] -0.008 | [6] -0.092 | [7] -0.014 | [8] 0.008 | IRAK-1-4 Inhibitor I -0.002

SLC5A6 (UniProt Q9Y289)
inactive: erlotinib 0.027 | [1] -0.014 | [2] 0.002 | [3] -0.012 | [4] -0.044 | [5] 0.012 | [6] -0.011 | [7] -0.026 | [8] 0.035 | IRAK-1-4 Inhibitor I 0.042

SLC30A5 (UniProt Q8TAD4)
inactive: erlotinib -0.015 | [1] 0.072 | [2] -0.178 | [3] 0.086 | [4] 0.015 | [5] -0.05 | [6] -0.156 | [7] -0.083 | [8] -0.019 | IRAK-1-4 Inhibitor I 0.041

SLC25A22 (UniProt Q9H936)
inactive: erlotinib 0.007 | [1] 0.021 | [2] -0.01 | [3] 0.032 | [4] 0.013 | [5] -0.011 | [6] 0.049 | [7] 0.012 | [8] -0.045 | IRAK-1-4 Inhibitor I -0.004

SLC38A5 (UniProt Q8WUX1)
inactive: erlotinib 0.008 | [1] -0.29 | [2] 0.011 | [3] 0.012 | [4] 0.022 | [5] 0.012 | [6] -0.017 | [7] 0.015 | [8] 0 | IRAK-1-4 Inhibitor I 0.01

SMAP1 isoform 2 (UniProt Q8IYB5)
inactive: erlotinib 0.002 | [1] -0.058 | [2] 0.037 | [3] -0.017 | [4] -0.024 | [5] -0.041 | [6] -0.031 | [7] -0.001 | [8] 0.026 | IRAK-1-4 Inhibitor I 0.03

SLC37A4 isoform 2 (UniProt O43826)
inactive: erlotinib -0.015 | [1] -0.048 | [2] 0.065 | [3] 0.004 | [4] -0.049 | [5] 0.004 | [6] -0.058 | [7] -0.071 | [8] -0.058 | IRAK-1-4 Inhibitor I 0.011

SLC35B3 (UniProt Q9H1N7)
inactive: erlotinib -0.085 | [1] 0.047 | [2] -0.002 | [3] 0.098 | [4] 0.107 | [5] -0.038 | [6] -0.09 | IRAK-1-4 Inhibitor I -0.001

SLC25A25 isoform 3 (UniProt Q6KCM7)
inactive: erlotinib -0.029 | [1] 0.054 | [2] -0.038 | [3] 0.039 | [4] -0.003 | [5] -0.027 | [6] 0.01 | [7] 0.011 | [8] -0.026 | IRAK-1-4 Inhibitor I -0.041

SLC30A1 (UniProt Q9Y6M5)
inactive: erlotinib 0.026 | [1] 0.008 | [2] 0.005 | [3] 0.009 | [4] -0.017 | [5] 0.001 | [6] -0.027 | [7] -0.008 | [8] 0.031 | IRAK-1-4 Inhibitor I 0.026

SLC9A1 (UniProt P19634)
inactive: erlotinib -0.01 | [1] -0.123 | [2] -0.035 | [3] -0.072 | [4] -0.001 | [5] 0.12 | [6] 0.021 | [7] 0.066 | [8] -0.007 | IRAK-1-4 Inhibitor I -0.016

SLC35B1 isoform 2 (UniProt P78383)
inactive: erlotinib -0.008 | [1] -0.046 | [2] 0.009 | [3] 0.055 | [5] 0.092 | [6] -0.168 | [7] -0.011 | [8] -0.005 | IRAK-1-4 Inhibitor I -0.055

SLC7A5 (UniProt Q01650)
inactive: erlotinib 0.001 | [1] -0.009 | [2] -0.029 | [3] -0.015 | [4] 0.02 | [5] 0.007 | [6] -0.008 | [7] 0.019 | [8] -0.006 | IRAK-1-4 Inhibitor I 0.021

SMAD5 (UniProt Q99717)
inactive: erlotinib 0.065 | [1] 0.148 | [2] -0.022 | [3] 0.174 | [4] -0.053 | [6] -0.201 | [7] 0.005 | [8] -0.034
